Laboratory results published in paper PMC7819943, “Rice protein-binding microarrays: a tool to detect cis-acting elements near promoter regions in rice”.
Some of the results follow.

Protein sequences, listed by entry. Tags and fused reporters are not part of them.
UniProt Q0JBA9, entry or part of it: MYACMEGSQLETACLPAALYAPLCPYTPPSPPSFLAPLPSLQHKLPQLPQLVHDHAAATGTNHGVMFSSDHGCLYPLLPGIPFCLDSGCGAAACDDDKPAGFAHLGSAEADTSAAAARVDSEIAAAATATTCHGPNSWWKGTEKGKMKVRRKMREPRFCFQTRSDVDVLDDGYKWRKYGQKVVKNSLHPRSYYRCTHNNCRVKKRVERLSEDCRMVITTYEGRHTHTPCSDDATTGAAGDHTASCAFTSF

Biological target: OsWRKY34 (Oryza sativa, UniProt Q0JBA9 1-250)
Assay: protein-binding microarray (RPBM); PBS, 2% BSA, 51.3 ng/ul salmon testes DNA, 50 uM zinc acetate, 200 nM TF, 25 C, 1 h; high values mean tight binding
Conditions: protein: recombinant; tags: N-terminal polyhistidine and DsRed monomer fusion (pET32a); label: CyDye5-dUTP incorporated in the synthesized complementary strand; 3' TTTTT single-stranded linker to array surface; dsDNA, one strand shown
In short: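 The binding signal is fluorescence intensity per feature, in arbitrary units, read on an Axon 4000B scanner. Polyhistidine- and DsRed-tagged transcription factors (N-terminal fusions) from E. coli BL21-CodonPlus were purified on Ni–NTA and applied at 200 nM for 1 h at 25 °C to a double-stranded, BSA-blocked custom Agilent array in buffer with 50 µM zinc acetate.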

Sequence | binding signal
ACACTACTCTTCTTCGTTCTTCCACATGGAAGCCAAGCTACGGAGTCACCTAGTGCAG | 8300 fluorescence intensity (a.u.)
TGTTCTTTCTCCTTGTGTAGTTGTGTGGTGTGGTTGAGCTCGGAGTCACCTAGTGCAG | 8970 fluorescence intensity (a.u.)
TTGTGCTCTTCATCGGCGCCAGCTTTAGCTTCTTCCTCATCGGAGTCACCTAGTGCAG | 10500 fluorescence intensity (a.u.)
CTACTGCTCTACTACATCCTACTCCTAACTCCCACCTAATCGGAGTCACCTAGTGCAG | 8740 fluorescence intensity (a.u.)
CGCCTAGTGCCGTGATCCTCTTTCGCCGCCGCCGCCGATGCGGAGTCACCTAGTGCAG | 9320 fluorescence intensity (a.u.)
CCCTCCGTTTTCATATTATAAGTCGTGTGACACTTTTCTTCGGAGTCACCTAGTGCAG | 8800 fluorescence intensity (a.u.)
CCACACACACATAGTTGACATACACATCAACACATGTACACGGAGTCACCTAGTGCAG | 8240 fluorescence intensity (a.u.)
CTGTGCTGAGCCAAACCCATCCTTGCTTGCTCATGTCATCCGGAGTCACCTAGTGCAG | 9400 fluorescence intensity (a.u.)
CTTCGGAGTTCAGACTGCTCGCTATCTTGCTGTCATTTTACGGAGTCACCTAGTGCAG | 8170 fluorescence intensity (a.u.)
AGGCGGGGTGGTGGAATCCTCGTCCCTCGCCTACTTTTTGCGGAGTCACCTAGTGCAG | 8050 fluorescence intensity (a.u.)
CCATACCTTTGGGCCGGCCCAGACTCCGTCCACTTGCACGCGGAGTCACCTAGTGCAG | 9530 fluorescence intensity (a.u.)
CCGAAACAACACACAGGTCATCCGGCCGCTCTCTTCTTTGCGGAGTCACCTAGTGCAG | 9170 fluorescence intensity (a.u.)
ACTAGGGGTTACTTGCGTATCTACAGTTGACTTTAACTCCCGGAGTCACCTAGTGCAG | 9870 fluorescence intensity (a.u.)
GCGAGGTGGGTCCTTCTCAGTTCAAATCTATCTCGCTGACCGGAGTCACCTAGTGCAG | 8730 fluorescence intensity (a.u.)
AATATGCCTATTAAAAATAAAATTTTCAGATTTAAAAATACGGAGTCACCTAGTGCAG | 12100 fluorescence intensity (a.u.)
GAGATAGATGGGCCTGAAATGCGCCGATGGTCAGGCCTGCCGGAGTCACCTAGTGCAG | 8190 fluorescence intensity (a.u.)
TCCCGAATCTTGCGCGATCGGATCCGCGTCGTCTGAACTCCGGAGTCACCTAGTGCAG | 8310 fluorescence intensity (a.u.)
GATTTTTGCGCTTCTTGTGTTCGTGAACCTATCACGCCGCCGGAGTCACCTAGTGCAG | 8070 fluorescence intensity (a.u.)
ACAAACCAATTTTTACATATGGACCGCTTAAGAGCCCGGTCGGAGTCACCTAGTGCAG | 8180 fluorescence intensity (a.u.)
CGGTAGGCGTACGTGGAGACCGGTGGAATTCGTCAAAACCCGGAGTCACCTAGTGCAG | 55000 fluorescence intensity (a.u.)
TCTCCGTCCCCATCACCCTCGCAATTACTCCACCCGCCGGCGGAGTCACCTAGTGCAG | 9290 fluorescence intensity (a.u.)

Sequence | binding signal
TAGAGTGGTTGGTTGGGTACTTGGGTTGGGTTGGGTGGTCCGGAGTCACCTAGTGCAG | 24300 fluorescence intensity (a.u.)
TATAAGACACGAGAAACCTTTGCAAGCCATTCGCTTTTTTCGGAGTCACCTAGTGCAG | 8200 fluorescence intensity (a.u.)
TAATAAGATTTTTTTTCATGGTCATATGATTTCCACGTGTCGGAGTCACCTAGTGCAG | 8500 fluorescence intensity (a.u.)
GCCCTGACTATCATAGCCACATCTCTATAATAGACAAACTCGGAGTCACCTAGTGCAG | 8340 fluorescence intensity (a.u.)
TTCGAACGGTCAACGCGGCCAGGTGCATGTTGTTAGTATTCGGAGTCACCTAGTGCAG | 8230 fluorescence intensity (a.u.)
GCCACGTCACTGCCGGCCAGATTACTTGTCCCATGCAGCTCGGAGTCACCTAGTGCAG | 8780 fluorescence intensity (a.u.)
CGTCGGCTCCCCGTGTACCCATCAATCCGTCACCGTCTTTCGGAGTCACCTAGTGCAG | 11000 fluorescence intensity (a.u.)
CGTGGGTCATTTTTTGTGTCTGTGAGCTTATCTTCTTGTCCGGAGTCACCTAGTGCAG | 8160 fluorescence intensity (a.u.)
GGAGGGAGTAGTATATTGGGGATTTTCAGTTGGGTCTGGGCGGAGTCACCTAGTGCAG | 14200 fluorescence intensity (a.u.)
CCACCACTACACACTCCACTCCATTTCCCACTCGACTCCACGGAGTCACCTAGTGCAG | 10500 fluorescence intensity (a.u.)
CGGGATACTCAAGGGGTTCGTGGGGCTCAGCGGCGCCGTGCGGAGTCACCTAGTGCAG | 9340 fluorescence intensity (a.u.)
CGGAGTTCTTCGTGGGCCTCGATCTACCGGCCTTCGCCTTCGGAGTCACCTAGTGCAG | 8870 fluorescence intensity (a.u.)
GACGGAATTTCTTCCGCCTAGGTCTCCCGGCGCCGACCTCCGGAGTCACCTAGTGCAG | 8170 fluorescence intensity (a.u.)
AAACCACGGCATTTTCCTCGCTCCCTTCTCTTCTTCCTTTCGGAGTCACCTAGTGCAG | 8750 fluorescence intensity (a.u.)
GTCTCTCACTCTCTCTTTCTCTCTCGACCACCACTACCACCGGAGTCACCTAGTGCAG | 9000 fluorescence intensity (a.u.)
TCCATCCATCCATCTCTCCTGCAGCTGCAGTGCAGGCGAGCGGAGTCACCTAGTGCAG | 8380 fluorescence intensity (a.u.)
ATCTTTTTGTTGTCTTTGAATTCAGTCTGTTTTTCTCATTCGGAGTCACCTAGTGCAG | 17900 fluorescence intensity (a.u.)
TGGGAGATGGGGATGGTGGCTGGCAGGTGGGGCCAATGGTCGGAGTCACCTAGTGCAG | 11000 fluorescence intensity (a.u.)
GCTTTCACCTGCCACCTACTCCACCTAACAAACACTACTCCGGAGTCACCTAGTGCAG | 8860 fluorescence intensity (a.u.)
TGCCAGCACAAATCTCGAAGCACATCCAATGATCCAAGACCGGAGTCACCTAGTGCAG | 9540 fluorescence intensity (a.u.)
ACTCCCTCGTCATTTCCTTCCCTAGACCCCTTCTCACGCCCGGAGTCACCTAGTGCAG | 8830 fluorescence intensity (a.u.)

Sequence | binding signal
GATCTATCGTATCAATGGATGGTGCTTCAATTTGTTCTTACGGAGTCACCTAGTGCAG | 9310 fluorescence intensity (a.u.)
CAATTTTTCCACTGTATTGACAATGCACAACATGCCCGATCGGAGTCACCTAGTGCAG | 9000 fluorescence intensity (a.u.)
AGCATATATTAATTATATATATTGCATGTATTTTATTTTTCGGAGTCACCTAGTGCAG | 8290 fluorescence intensity (a.u.)
TGTTGTTTTTGTTTCTTCATATGTTGTTGATCGAATTTAGCGGAGTCACCTAGTGCAG | 12000 fluorescence intensity (a.u.)
TGAGCCCATCCATTTTGACCCATGCCATCCTGGTCCTATACGGAGTCACCTAGTGCAG | 9080 fluorescence intensity (a.u.)
GAGTGGTAAGAGTTGTGTGGTTTTAACTTTGATCCAGTTCCGGAGTCACCTAGTGCAG | 10100 fluorescence intensity (a.u.)
TGTCTTTATTAAGTGCAAATGTATTTGGATTCCAACCCTTCGGAGTCACCTAGTGCAG | 8180 fluorescence intensity (a.u.)
GGACGCTTGTCAATGGCATTTCTTGAATTATCTCTTCTCTCGGAGTCACCTAGTGCAG | 9110 fluorescence intensity (a.u.)
CTGCCTGCTCATGAGTCATGACATATACTAGCTTGATCAACGGAGTCACCTAGTGCAG | 8230 fluorescence intensity (a.u.)
TAGCCCGTTCTTTTTGACTCCGCGGTGACTCGCGCGCTCTCGGAGTCACCTAGTGCAG | 10600 fluorescence intensity (a.u.)
CTTTCGTCTCGGTCTTTGTGGTCTTGGAGTCCATTCTTCACGGAGTCACCTAGTGCAG | 10600 fluorescence intensity (a.u.)
GCTGTATGTTTTTACCTCTTTTTTTTTTGTTTTCATTATTCGGAGTCACCTAGTGCAG | 10300 fluorescence intensity (a.u.)
TCTTCTTCTTATCTCTATACTCCGTAGTACATATACACGCCGGAGTCACCTAGTGCAG | 8990 fluorescence intensity (a.u.)
AACTACCCCTGTCTGTGCCACCCATCTCTCCAGATTAGGACGGAGTCACCTAGTGCAG | 8930 fluorescence intensity (a.u.)
TCGTCGCCGGGTTCCTCATCGTCACCTGCGCCTACTTCTCCGGAGTCACCTAGTGCAG | 8250 fluorescence intensity (a.u.)
GTTCTTCAACCTATGGAAGTCGGTATGACACTTCTGATTCCGGAGTCACCTAGTGCAG | 8200 fluorescence intensity (a.u.)
GCACGTACGGGTATCACCTTCTTGTTATCAGTAACTACTCCGGAGTCACCTAGTGCAG | 8040 fluorescence intensity (a.u.)
TAAAAATTTTTAGTGTTCGTTTGCTGGGTTGGTAACTAATCGGAGTCACCTAGTGCAG | 9660 fluorescence intensity (a.u.)
GGTTGGGATTTGGTGTCTGCTTTGGAATTACAATTTTAGTCGGAGTCACCTAGTGCAG | 9590 fluorescence intensity (a.u.)
ATCTCAGCATTTTCTCCAGTTTTTCTCCTACTCTTAACTCCGGAGTCACCTAGTGCAG | 9740 fluorescence intensity (a.u.)
AACCTCGCCATCTTTCTCTGACATGTCGCTCACCGCTGTGCGGAGTCACCTAGTGCAG | 12800 fluorescence intensity (a.u.)

Sequence | binding signal
GGCCTAATTATTGCCTTAATTTTTCTCTTTGGTTTTCTCACGGAGTCACCTAGTGCAG | 9070 fluorescence intensity (a.u.)
CTTGTTATTTCTTTTAACTTTTTTGCTCTTAATCTGAATCCGGAGTCACCTAGTGCAG | 8300 fluorescence intensity (a.u.)
GCCTAGTGGAGGGGATGGTTGGGGATGAGCATTAGGTGTCCGGAGTCACCTAGTGCAG | 11000 fluorescence intensity (a.u.)
ATATTTGCATTGCTCCAATTCTTCAGCCAGCGAGTTTATACGGAGTCACCTAGTGCAG | 9560 fluorescence intensity (a.u.)
AGAGACCCGCCGCCGCCGTCTTTGCAGCCGCCCGGCTTTGCGGAGTCACCTAGTGCAG | 8260 fluorescence intensity (a.u.)
GAGAATAATAGTCAATCTGTAGCTCAGTGCCCTTTTCTTCCGGAGTCACCTAGTGCAG | 8140 fluorescence intensity (a.u.)
GAACAGCTCAGCTCACCGCATCCTTTGACTTTTTAACCAGCGGAGTCACCTAGTGCAG | 18100 fluorescence intensity (a.u.)
GCCACCATGCACCATCCCTGGCCCTCGCAGACCCTCAATACGGAGTCACCTAGTGCAG | 10000 fluorescence intensity (a.u.)
TGTGTTGTTGTCACACTGTTGCGTGTGTCAGATGCAGGAACGGAGTCACCTAGTGCAG | 9770 fluorescence intensity (a.u.)
TATTTCTGTGGGAGGAGGGTCCAGGAGATGAGAGGGGCGGCGGAGTCACCTAGTGCAG | 11700 fluorescence intensity (a.u.)
GGCTTGTTCACTTTATCGCGTTTTGGCATTACCAAATTTTCGGAGTCACCTAGTGCAG | 15000 fluorescence intensity (a.u.)
TTTTCTTTCCTTTATTATTTTCTTTATCCTTTTTTTCTCCCGGAGTCACCTAGTGCAG | 9250 fluorescence intensity (a.u.)
ACTGCTCCTTGGTTTTTTTTACTCGTCGAGTCATCTTCCCCGGAGTCACCTAGTGCAG | 11300 fluorescence intensity (a.u.)
CCCGCCGCCGCTCCACCACCGCGGCGCCGCGCCTCCTCTCCGGAGTCACCTAGTGCAG | 8880 fluorescence intensity (a.u.)
TTGACATGTAAAGTGCATTTGTAAAACAATAGCTTACAATCGGAGTCACCTAGTGCAG | 8730 fluorescence intensity (a.u.)
GACCGGCAATCTTAAGATTTTCAGCTACTCCTATACAACACGGAGTCACCTAGTGCAG | 9760 fluorescence intensity (a.u.)
GTGTAATTGGTTTTTTTCCTACATTTAATACTCCATGCATCGGAGTCACCTAGTGCAG | 8320 fluorescence intensity (a.u.)
TTGTGTCGTTAAATTTTCTTTTTATCTTATATTATATTTGCGGAGTCACCTAGTGCAG | 8630 fluorescence intensity (a.u.)
GAATCTGACACACAATTGAGTTTTTTTGGTACTGAGAGGGCGGAGTCACCTAGTGCAG | 8680 fluorescence intensity (a.u.)
GCGTCGATCGGCCGCTTTGGACGGCCCTGATTACGCCCATCGGAGTCACCTAGTGCAG | 8340 fluorescence intensity (a.u.)
GGTGGAAAGGGGAGGGGAAGAAGATGCTGACATGTGGGACCGGAGTCACCTAGTGCAG | 8380 fluorescence intensity (a.u.)

An excerpt of these results, as a markdown table:

| Sequence | binding signal |
| --- | --- |
| TGAGCCCATCCATTTTGACCCATGCCATCCTGGTCCTATACGGAGTCACCTAGTGCAG | 9080 fluorescence intensity (a.u.) |
| GCTGTATGTTTTTACCTCTTTTTTTTTTGTTTTCATTATTCGGAGTCACCTAGTGCAG | 10300 fluorescence intensity (a.u.) |
| GTTCTTCAACCTATGGAAGTCGGTATGACACTTCTGATTCCGGAGTCACCTAGTGCAG | 8200 fluorescence intensity (a.u.) |
| ATCTCAGCATTTTCTCCAGTTTTTCTCCTACTCTTAACTCCGGAGTCACCTAGTGCAG | 9740 fluorescence intensity (a.u.) |
